Assay results: patent US9951356B2, “Processes to prepare elongated 2-ketoacids and C6-C10 compounds therefrom via genetic modifications to microbial metabolic pathways” (Dow Global Technologies LLC, priority 2013, dated 2018)
Changes are numbered by the printed parent chain. Names may count otherwise. Some entries share one result that the patent states for a list of compounds.

B1: L96A/V198A: E. coli LeuB variant with Leu-96 and Val-198 both replaced with alanine (protein, UniProt P30125 2-363, looked up, variant L96A V198A)
3-isopropylmalate …: SKNYHIAVLPGDGIGPEVMTQALKVLDAVRNRFAMRITTSHYDVGGAAIDNHGQPLPPATVEGCEQADAVLFGSVGGPKWEHLPPDQQPERGALAPLRKHFKLFSNLRPAKLYQGLEAFCPLRADIAANGFDILCVRELTGGIYFGQPKGREGSGQYEKAFDTEVYHRFEIERIARIAFESARKRRHKVTSIDKANALQSSILWREIVNEIATEYPDVELAHMYIDNATMQLIKDPSQFDVLLCSNLFGDILSDECAMITGSMGMLPSASLNEQGFGLYEPAGGSAPDIAGKNIANPIAQILSLALLLRYSLDADDAACAIERAINRALEEGIRTGDLARGAAAVSTDEMGDIIARYVAEGV
B2: L96G/V198A: E. coli LeuB variant with Leu-96 replaced with glycine and Val-198 with alanine (protein, UniProt P30125 2-363, looked up, variant L96G V198A)
3-isopropylmalate …: B1 3-isopropylmalate … with A95G

Assay: HTP LeuB kinetic assay, oxidative decarboxylation of 3-IPM
Type: biochemical
Details: less efficient than wild type LeuB
Experimental: The evaluation of the LeuB variants is performed in two steps using the high-throughput enzyme assay described below. Initially, all of the variants are screened for activity against a single high concentration of 3-IPM, 3-BM and 3-HM. Following the initial evaluation, detailed kinetic analysis is performed on a select number of variants to determine the maximal rate (kcat), Michaelis-Menten constant (KM), and the catalytic efficiency of the variant enzymes (kcat/KM).
A suitable spectrophotometric LeuB enzyme assay is adapted into a high-throughput format in 96-well plates for the kinetic evaluation of LeuB and its variants (shown in Table 1) against 3-isopropylmalate (3-IPM), 3-butylmalate (3-BM), and 3-hexylmalate (3-HM). […] Steady state kinetic parameters (kcat, KM and kcat/KM) for the oxidative decarboxylation of the three substrates by the variants are determined in these experiments.
The HTP kinetic assay involves incubating eight varied concentrations, of 3-IPM (from 0 to 1.2 mM) or 3-BM (from 0 to 2 mM) or 3-HM (from 0 to 2 mM), with 2 mM NAD^+ in LeuB assay buffer (50 mM HEPES, pH 8.0, containing 30 mM KCl and 5 mM MgCl2) at 25° C. […] The plate containing the 200 μl of reaction mixture is centrifuged at 2500×g for 15 sec and the absorbance change is followed spectrophotometrically at 340 nm on a BioTek™ plate reader maintained at 25° C. […]

Molecule	decrease in efficiency of capturing 3-IPM compared with the wild type enzyme
B1	more than 3000 fold
B2	more than 3000 fold
